The results in this text go back to article PMC9435518.

For the test, the target named is T1, TNF receptor-associated factor 6 (rat (endogenous in H9c2)) (UniProt B5DF45).
T1 sequence: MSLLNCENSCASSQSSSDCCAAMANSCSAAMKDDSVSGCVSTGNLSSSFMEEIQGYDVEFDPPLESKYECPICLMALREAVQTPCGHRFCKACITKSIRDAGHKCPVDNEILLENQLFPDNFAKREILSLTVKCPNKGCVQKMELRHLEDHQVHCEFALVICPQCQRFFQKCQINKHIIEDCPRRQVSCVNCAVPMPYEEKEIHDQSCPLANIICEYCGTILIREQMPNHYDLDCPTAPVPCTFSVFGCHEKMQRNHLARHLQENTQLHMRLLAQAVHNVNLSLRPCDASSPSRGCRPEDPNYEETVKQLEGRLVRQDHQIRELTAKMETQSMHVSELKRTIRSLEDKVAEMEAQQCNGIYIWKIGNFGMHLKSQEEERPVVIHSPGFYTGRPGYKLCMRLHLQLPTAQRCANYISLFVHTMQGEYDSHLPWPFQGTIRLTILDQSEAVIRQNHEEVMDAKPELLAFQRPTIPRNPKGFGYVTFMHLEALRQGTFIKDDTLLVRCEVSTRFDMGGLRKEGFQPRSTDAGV
The test can be described thus: co-IP; H9c2 cells after H/R; lysed in IP buffer (20 mmol/L Tris-HCl pH 8.0, 150 mmol/L NaCl, 0.5% NP-40, 1 mmol/L EDTA, protease inhibitors); TRAF6 antibody or normal IgG, protein A/G agarose beads 3 h at 4 °C; immunoblot.

These are yes or no findings as the source states them, for the method shown. In cells and extracts the contact can be indirect. Binding calls can cover weak binding; strength is not graded here.

With “Tripartite motif (TRIM) 38 (rat (endogenous in H9c2))”, the binding entry is “binds”.
